In paper PMC10895266, “The structure of the Caenorhabditis elegans TMC-2 complex suggests roles of lipid-mediated subunit contacts in mechanosensory transduction” (Proceedings of the National Academy of Sciences of the …, 2024):
Read-outs that look alike come from different tables or passages of the source. These are yes or no findings as the source states them, for the method shown. In cells and extracts the contact can be indirect. These calls come from enrichment with a bait or labelling near it, and not all partners need be listed. A no says only that the protein was not detected with the bait. Where a sequence is shown, tags or fusion partners need not be part of it.

T1: TMC-2 (transmembrane channel-like protein 2), native, tagged with mVenus-3xFLAG at the endogenous locus (C. elegans) (UniProt Q11069)
T1 sequence (chain, N-glycans at N225 and N748): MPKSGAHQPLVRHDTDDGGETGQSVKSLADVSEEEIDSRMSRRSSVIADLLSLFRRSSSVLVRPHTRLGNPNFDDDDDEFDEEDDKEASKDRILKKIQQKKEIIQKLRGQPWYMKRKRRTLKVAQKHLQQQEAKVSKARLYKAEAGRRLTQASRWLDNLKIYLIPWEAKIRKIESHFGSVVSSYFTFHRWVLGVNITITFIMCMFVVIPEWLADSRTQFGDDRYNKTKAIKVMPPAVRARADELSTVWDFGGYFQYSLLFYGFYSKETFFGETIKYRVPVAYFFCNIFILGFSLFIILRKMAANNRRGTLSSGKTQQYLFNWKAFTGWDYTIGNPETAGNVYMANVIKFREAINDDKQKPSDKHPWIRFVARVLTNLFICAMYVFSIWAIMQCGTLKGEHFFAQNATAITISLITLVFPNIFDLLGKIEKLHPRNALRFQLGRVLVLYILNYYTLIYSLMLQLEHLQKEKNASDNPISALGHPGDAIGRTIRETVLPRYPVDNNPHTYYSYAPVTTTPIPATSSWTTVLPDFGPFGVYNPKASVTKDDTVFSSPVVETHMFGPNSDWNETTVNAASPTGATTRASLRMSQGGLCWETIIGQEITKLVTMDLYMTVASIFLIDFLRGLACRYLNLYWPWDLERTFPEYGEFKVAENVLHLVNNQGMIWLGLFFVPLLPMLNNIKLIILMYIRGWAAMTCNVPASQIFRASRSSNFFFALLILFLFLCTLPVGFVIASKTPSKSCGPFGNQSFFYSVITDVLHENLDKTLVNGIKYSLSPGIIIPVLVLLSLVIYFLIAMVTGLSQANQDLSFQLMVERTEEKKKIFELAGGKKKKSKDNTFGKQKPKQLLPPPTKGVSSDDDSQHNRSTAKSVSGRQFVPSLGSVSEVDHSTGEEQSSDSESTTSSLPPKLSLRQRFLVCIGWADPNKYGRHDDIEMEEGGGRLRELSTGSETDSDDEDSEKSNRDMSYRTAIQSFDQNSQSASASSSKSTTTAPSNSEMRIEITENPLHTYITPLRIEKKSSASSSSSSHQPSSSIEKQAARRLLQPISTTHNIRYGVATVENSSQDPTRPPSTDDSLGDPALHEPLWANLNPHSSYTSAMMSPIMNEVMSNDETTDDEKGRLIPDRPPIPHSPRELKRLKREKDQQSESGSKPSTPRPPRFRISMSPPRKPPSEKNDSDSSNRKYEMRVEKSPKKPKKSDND


How the values were obtained:
[1] = target: T1, TMC-2 (transmembrane channel-like protein 2), native, tagged with mVenus-3xFLAG at the endogenous locus (C. elegans); test: affinity purification with mass spectrometry; native TMC-2-mVenus-3xFLAG complex from tmc2::mVenus worms solubilised in 2% GDN, bound to anti-FLAG M2 magnetic resin, eluted with 3C protease, SEC (Superose 6 Increase; 20 mM Tris-Cl pH 8.0, 150 mM NaCl, 0.02% GDN, 1 mM CaCl2); putative dimeric peak analysed by LC-MS/MS
[2] = target: T1, TMC-2 (transmembrane channel-like protein 2), native, tagged with mVenus-3xFLAG at the endogenous locus (C. elegans); test: as above; remark: listed apart in the source

binding [1] | binding [2] | Molecule
no binding |  | ARRD-6 (arrestin) (C. elegans (endogenous in worms))
no binding |  | UNC-44, the worm ortholog of mammalian ankyrin (C. elegans (endogenous in worms))
no binding |  | worm homolog of lipoma HMGIC fusion partner-like 5 (LHFPL5, lhfp-4 in worms) (C. elegans (endogenous in worms))
no binding |  | worm homolog of protocadherin-15 (PCDH15, cdh-5 in worms) (C. elegans (endogenous in worms))
 | no binding | TMC-1 (transmembrane channel-like protein 1) (protein, UniProt D3KZG3 1-1285) MQEAARRASLRKEHTPTNEKFGDLSKQDSLGERASSKLTLDDELYDILYAFGETDAFINKGDKQRETDEDGNPLTRQALLERIRQKKEVIGKLRCQAWSMTRKRRTLKLAQKYLEQHESKVSRSHLYMEEMRKRARLMKRSFSNFKTYLIPWESKIKRIESHFGSVVSSYFTFLRWIVFVNIMITLIALVFVVLPETLADSVANEGRFNRTKTRKQIPANERVHADELAVVWHYDGYLRYSPLFYGYYSDDPFLGNKIKYALPLAYFMVTLTIFAYSFFAILRKMAANARMSKLSGSKAEQYIFNWKLFTGWDYTIGNSETASNTVMAVVIKLRESIADIKKDAHGKFRLLQFSLRVFANIIICAMLGFSIYCIIFAVQKSQVQDDGNLFTKNQVPSVVSTITHVFPMIFDLIGKMENYHPRTALRAHLGRVLILYTVNYITLIFALFEKMTALRDRVNSTSTSSSHRTKRQQGGWNPNMQRPPPYASRAEVRQMSDFLAANTRRFQTVSQRTTRSVTTPFTVAPQFGPFNVNNPNAVFHNGTHSTSFESQILGPKALPIFTPPPRKYPGFTPGNVGQQFGGPDFPRNQVYTKSTPLPRVRTKPPWVYTTTHPPLVQNRAMTTTMSKSAKKGNSKNLDDDILLSNETIQMSEAALRRNHDGHNNDICWETIIGQEIVKLVTMDLIFTILSILVIDLFRGLWIKYCSSWWCWDIETTFPEYGEFKVAENVLHIINNQGMIWLGLFFAPLLPAINNIKLIILMYIRGWAVMTCNVPAREIFRASRSSNFYLGILLIWLLLCTLPVGFVIASMSPSRSCGPFARYQHFYTVVTREIEKRVDQTVLSYIRHIASPGVVIPIILFLILIIYFLFSLVRGLREANTDLQAQLVHERTEEKKKIFELAGGKKNKFEKDRDKKRSNDYIPLIEQRRREPWRQYHEMEADHALASDSSEESDINEDEDDERQPLTAYPLRAIETPPETLQVTAFHPSLGSLIENREMEDEESASGDQLPMIHKSVSFQGPSHMQMRQSISTESCSQISRSAIQVATPEEIRALLRPYLEAKYGIPYQHGIKSFPIDVHTPPNNTPSRRSSKYNSFVSLYEHTRDDHKNFVASTIKETDEDPGKSDKKQTSSKDVAPDFMPWPSADEARALREKMKSKTPLMLTKTTVEEKPKGGKSSESEFRPPVPIHRKYNIQTTEEENEEEETDSAPESSKKRFRISVSPTKTIAPASASRAQHKIVSQASSSSSIPHGRQPDPNKKASLVLPPLRAPRVQFDEDDSPRQID
